# Measured values: the supplement of paper PMC8728848
# Some of the results follow.
# Tests used:
# Experiment in all cases: glycan array binding signal (z-score within array); higher = stronger binding
# Details in all cases: glycan notation: IUPAC condensed, linker removed
# [1] = target: Gal(b1-3)GlcNAc(b1-3)Gal(b1-4)GlcNAc(b1-2)[Gal(b1-3)GlcNAc(b1-3)Gal(b1-4)GlcNAc(b1-6)]Man(a1-6)[Gal(b1-3)GlcNAc(b1-3)Gal(b1-4)GlcNAc(b1-2)Man(a1-3)]Man(b1-4)GlcNAc(b1-4)[Fuc(a1-6)]GlcNAc
# In short: (§1)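 Glycan array data were curated from 3228 arrays in the Consortium for Functional Glycomics database and kept only where the protein sequence was available. Glycan names were converted to IUPAC-condensed notation, and columns mapping to the same glycan were averaged. The binding signal is a within-array Z-score, averaged across arrays of the same protein sequence at different concentrations or buffers and across linkers. Negative Z-scores can be read as non-binding.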
# [2] = target: Gal(b1-3)GlcNAc(b1-3)Gal(b1-4)GlcNAc(b1-3)Gal(b1-4)GlcNAc(b1-2)[Gal(b1-3)GlcNAc(b1-3)Gal(b1-4)GlcNAc(b1-3)Gal(b1-4)GlcNAc(b1-6)]Man(a1-6)[Gal(b1-3)GlcNAc(b1-3)Gal(b1-4)GlcNAc(b1-3)Gal(b1-4)GlcNAc(b1-2)Man(a1-3)]Man(b1-4)GlcNAc(b1-4)[Fuc(a1-6)]GlcNAc
# In short: as §1
# [3] = target: Gal(b1-3)GlcNAc(b1-3)Gal(b1-4)GlcNAc(b1-6)[Gal(b1-3)GlcNAc(b1-3)]Gal(b1-4)Glc
# In short: as §1
# [4] = target: Gal(b1-3)GlcNAc(b1-3)Gal(b1-4)[Fuc(a1-3)]GlcNAc
# In short: as §1
# [5] = target: Gal(b1-3)GlcNAc(b1-3)Gal(b1-4)[Fuc(a1-3)]GlcNAc(b1-6)[Gal(b1-3)GlcNAc(b1-3)]Gal(b1-4)Glc
# In short: as §1
# [6] = target: Gal(b1-3)GlcNAc(b1-3)GalNAc
# In short: as §1
# [7] = target: Gal(b1-3)GlcNAc(b1-6)Gal(b1-4)GlcNAc
# In short: as §1
# [8] = target: Gal(b1-3)GlcNAc(b1-6)GalNAc
# In short: as §1
# [9] = target: Gal(b1-3)GlcNAc(b1-6)[Gal(b1-3)]GalNAc
# In short: as §1
# Gal(b1-3)GlcNAc6S = target: Gal(b1-3)GlcNAc6S
# In short: as §1
# [10] = target: Gal(b1-3)[Fuc(a1-4)]GlcNAc
# In short: as §1
# [11] = target: Gal(b1-3)[Fuc(a1-4)]GlcNAc(b1-2)Man
# In short: as §1
# [12] = target: Gal(b1-3)[Fuc(a1-4)]GlcNAc(b1-2)Man(a1-3)[Gal(b1-3)[Fuc(a1-4)]GlcNAc(b1-2)Man(a1-6)]Man(b1-4)GlcNAc(b1-4)[Fuc(a1-6)]GlcNAc
# In short: as §1
# [13] = target: Gal(b1-3)[Fuc(a1-4)]GlcNAc(b1-3)Gal(b1-3)[Fuc(a1-4)]GlcNAc
# In short: as §1
# [14] = target: Gal(b1-3)[Fuc(a1-4)]GlcNAc(b1-3)Gal(b1-4)[Fuc(a1-3)]GlcNAc
# In short: as §1
# [15] = target: Gal(b1-3)[Fuc(a1-4)]GlcNAc(b1-6)GalNAc
# In short: as §1
# [16] = target: Gal(b1-3)[GlcNAc(b1-6)]GalNAc
# In short: as §1
# [17] = target: Gal(b1-3)[Neu5Ac(a2-6)]GalNAc
# In short: as §1
# [18] = target: Gal(b1-3)[Neu5Ac(a2-6)]GlcNAc(b1-4)Gal(b1-4)Glc
# In short: as §1
# [19] = target: Gal(b1-3)[Neu5Ac(b2-6)]GalNAc
# In short: as §1
# Gal(b1-4)Gal = target: Gal(b1-4)Gal
# In short: as §1
# [20] = target: Gal(b1-4)GalNAc(a1-3)[Fuc(a1-2)]Gal(b1-4)GlcNAc
# In short: as §1
# [21] = target: Gal(b1-4)GalNAc(b1-3)[Fuc(a1-2)]Gal(b1-4)GlcNAc
# In short: as §1
# Gal(b1-4)Glc = target: Gal(b1-4)Glc
# In short: as §1
# Gal(b1-4)Glc6S = target: Gal(b1-4)Glc6S
# In short: as §1
# Gal(b1-4)GlcNAc = target: Gal(b1-4)GlcNAc
# In short: as §1
# [22] = target: Gal(b1-4)GlcNAc(a1-6)Gal(b1-4)GlcNAc
# In short: as §1
# Gal(b1-4)GlcNAc(b1-2)Man = target: Gal(b1-4)GlcNAc(b1-2)Man
# In short: as §1
# [23] = target: Gal(b1-4)GlcNAc(b1-2)Man(a1-3)Man(b1-4)GlcNAc(b1-4)GlcNAc
# In short: as §1
# [24] = target: Gal(b1-4)GlcNAc(b1-2)Man(a1-3)[Gal(b1-4)GlcNAc(b1-2)Man(a1-6)]Man(b1-4)GlcNAc(b1-4)GlcNAc
# In short: as §1
# [25] = target: Gal(b1-4)GlcNAc(b1-2)Man(a1-3)[Gal(b1-4)GlcNAc(b1-2)Man(a1-6)]Man(b1-4)GlcNAc(b1-4)[Fuc(a1-6)]GlcNAc
# In short: as §1
# [26] = target: Gal(b1-4)GlcNAc(b1-2)Man(a1-3)[Gal(b1-4)GlcNAc(b1-2)Man(a1-6)][Gal(b1-4)GlcNAc(b1-4)]Man(b1-4)GlcNAc(b1-4)[Fuc(a1-6)]GlcNAc
# In short: as §1
# [27] = target: Gal(b1-4)GlcNAc(b1-2)Man(a1-3)[Gal(b1-4)GlcNAc(b1-2)Man(a1-6)][GlcNAc(b1-4)]Man(b1-4)GlcNAc(b1-4)[Fuc(a1-6)]GlcNAc
# In short: as §1
# [28] = target: Gal(b1-4)GlcNAc(b1-2)Man(a1-3)[GlcNAc(b1-2)Man(a1-6)]Man(b1-4)GlcNAc(b1-4)GlcNAc
# In short: as §1
# [29] = target: Gal(b1-4)GlcNAc(b1-2)Man(a1-3)[GlcNAc(b1-4)][Gal(b1-4)GlcNAc(b1-2)Man(a1-6)]Man(b1-4)GlcNAc(b1-4)GlcNAc
# In short: as §1
# [30] = target: Gal(b1-4)GlcNAc(b1-2)Man(a1-3)[Man(a1-6)]Man(b1-4)GlcNAc(b1-4)GlcNAc
# In short: as §1
# [31] = target: Gal(b1-4)GlcNAc(b1-2)Man(a1-6)Man(b1-4)GlcNAc(b1-4)GlcNAc
# In short: as §1
# [32] = target: Gal(b1-4)GlcNAc(b1-2)Man(a1-6)[GlcNAc(b1-2)Man(a1-3)]Man(b1-4)GlcNAc(b1-4)GlcNAc
# In short: as §1
binder,measurement,setting,value
SJCP1084 (Schistosoma japonicum) (protein) MRIINLVIISTALLLINLLQTKSQANGEDTKNGTPDDPGLTKSTELKVEVQALLKDKKTNMRVKWNENLLDNTKPEYHNLRDEACELLLQIVRSVVPLSQDDGECKDVTFTKYVVGTKDGAVNVKLTITFKDSVAINQKPMDLKLKLENDFKNLQSESTLKATKPTFTVKVEKRLIPISKPQTTPPTTAKNDASKENVGDIGGEDSTVPTAAPATAASANEEKDEGDKDNKDSQHPNVLTSNVNDRNLIIALVALMILAIGVALTAAVKQR,glycan array binding signal (z-score),[1],0.09
same,glycan array binding signal (z-score),[2],1.59
same,glycan array binding signal (z-score),[3],1.66
same,glycan array binding signal (z-score),[4],-0.553
same,glycan array binding signal (z-score),[5],-0.024
same,glycan array binding signal (z-score),[6],-0.886
same,glycan array binding signal (z-score),[7],-0.008
same,glycan array binding signal (z-score),[8],-0.614
same,glycan array binding signal (z-score),[9],-1.2
same,glycan array binding signal (z-score),Gal(b1-3)GlcNAc6S,-0.01
same,glycan array binding signal (z-score),[10],-0.796
same,glycan array binding signal (z-score),[11],2.49
same,glycan array binding signal (z-score),[12],-1.03
same,glycan array binding signal (z-score),[13],-1.02
same,glycan array binding signal (z-score),[14],-0.185
same,glycan array binding signal (z-score),[15],-0.381
same,glycan array binding signal (z-score),[16],-0.42
same,glycan array binding signal (z-score),[17],-0.582
same,glycan array binding signal (z-score),[18],0.43
same,glycan array binding signal (z-score),[19],-1.04
same,glycan array binding signal (z-score),Gal(b1-4)Gal,-0.075
same,glycan array binding signal (z-score),[20],-0.495
same,glycan array binding signal (z-score),[21],-0.48
same,glycan array binding signal (z-score),Gal(b1-4)Glc,-0.653
same,glycan array binding signal (z-score),Gal(b1-4)Glc6S,0.127
same,glycan array binding signal (z-score),Gal(b1-4)GlcNAc,-0.069
same,glycan array binding signal (z-score),[22],-0.963
same,glycan array binding signal (z-score),Gal(b1-4)GlcNAc(b1-2)Man,-0.655
same,glycan array binding signal (z-score),[23],-0.007
same,glycan array binding signal (z-score),[24],0.231
same,glycan array binding signal (z-score),[25],0.514
same,glycan array binding signal (z-score),[26],0.041
same,glycan array binding signal (z-score),[27],-1.17
same,glycan array binding signal (z-score),[28],-0.705
same,glycan array binding signal (z-score),[29],-0.984
same,glycan array binding signal (z-score),[30],-0.163
same,glycan array binding signal (z-score),[31],0.055
same,glycan array binding signal (z-score),[32],0.284

# Random excerpt: two entries already listed.
binder,measurement,setting,value
SJCP1084 (Schistosoma japonicum) (protein) MRIINLVIISTALLLINLLQTKSQANGEDTKNGTPDDPGLTKSTELKVEVQALLKDKKTNMRVKWNENLLDNTKPEYHNLRDEACELLLQIVRSVVPLSQDDGECKDVTFTKYVVGTKDGAVNVKLTITFKDSVAINQKPMDLKLKLENDFKNLQSESTLKATKPTFTVKVEKRLIPISKPQTTPPTTAKNDASKENVGDIGGEDSTVPTAAPATAASANEEKDEGDKDNKDSQHPNVLTSNVNDRNLIIALVALMILAIGVALTAAVKQR,glycan array binding signal (z-score),[27],-1.17
same,glycan array binding signal (z-score),[1],0.09
